The source of these data is publication PMC5705118.

In the experiment the target is HCV NS4B protein, genotype 3a (S52-SG-Feo subgenomic replicon) (hepatitis C virus genotype 3a (S52)). Kind of experiment: co-IP; lysate (Cellytic MT) of Huh7.5/SGR-Feo-JFH-1 or Huh7.5 S52/SG-Feo cells; NS4B precipitated with the antibody MA17616 overnight at 4°C and Protein A agarose; washed 5x with 25 mM Tris, 150 mM NaCl; western blot for HSPB8; control without the NS4B antibody. Background: Immunoblotting shows a protein as a band on a membrane.

Results are given in words; binding and its absence hold for the method and conditions named. In cells and extracts the contact can be indirect. Binding can be weak; no strength is given.

B1: HSPB8 (Heat Shock Protein Family B Member 8) (protein, UniProt Q9UJY1 1-196)
chain: MADGQMPFSCHYPSRLRRDPFRDSPLSSRLLDDGFGMDPFPDDLTASWPDWALPRLSSAWPGTLRSGMVPRGPTATARFGVPAEGRTPPPFPGEPWKVCVNVHSFKPEELMVKTKDGYVEVSGKHEEKQQEGGIVSKNFTKKIQLPAEVDPVTVFASLSPEGLLIIEAPQVPPYSTFGESSFNNELPQDSQEVTCT
Regarding B1, the binding entry is “binds”.
